Experimental data as given in PMC10449923.
No constants are given. Whether binding was seen depends on the method and setting. Binding seen in cells or lysates may run through a third protein. A yes stands for co-enrichment or nearness to the bait. Other partners may have been found.

Amino acid sequences for entries named in this document (tags omitted). A change or cut given only in a name is not applied to a line headed by its entry.
UniProt Q13547: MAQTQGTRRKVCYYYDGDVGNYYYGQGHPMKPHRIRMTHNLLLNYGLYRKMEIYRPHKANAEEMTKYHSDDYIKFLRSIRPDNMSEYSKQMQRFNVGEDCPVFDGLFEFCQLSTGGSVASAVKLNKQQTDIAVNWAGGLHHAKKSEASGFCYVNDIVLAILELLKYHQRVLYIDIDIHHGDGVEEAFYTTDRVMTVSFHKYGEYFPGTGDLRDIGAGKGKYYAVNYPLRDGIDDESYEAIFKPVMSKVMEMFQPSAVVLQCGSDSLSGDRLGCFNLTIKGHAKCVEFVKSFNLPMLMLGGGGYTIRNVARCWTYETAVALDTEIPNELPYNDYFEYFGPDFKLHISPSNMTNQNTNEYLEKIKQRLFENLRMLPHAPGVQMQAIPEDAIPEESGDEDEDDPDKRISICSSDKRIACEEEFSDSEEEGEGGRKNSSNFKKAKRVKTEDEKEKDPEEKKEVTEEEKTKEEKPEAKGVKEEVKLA
UniProt P35222: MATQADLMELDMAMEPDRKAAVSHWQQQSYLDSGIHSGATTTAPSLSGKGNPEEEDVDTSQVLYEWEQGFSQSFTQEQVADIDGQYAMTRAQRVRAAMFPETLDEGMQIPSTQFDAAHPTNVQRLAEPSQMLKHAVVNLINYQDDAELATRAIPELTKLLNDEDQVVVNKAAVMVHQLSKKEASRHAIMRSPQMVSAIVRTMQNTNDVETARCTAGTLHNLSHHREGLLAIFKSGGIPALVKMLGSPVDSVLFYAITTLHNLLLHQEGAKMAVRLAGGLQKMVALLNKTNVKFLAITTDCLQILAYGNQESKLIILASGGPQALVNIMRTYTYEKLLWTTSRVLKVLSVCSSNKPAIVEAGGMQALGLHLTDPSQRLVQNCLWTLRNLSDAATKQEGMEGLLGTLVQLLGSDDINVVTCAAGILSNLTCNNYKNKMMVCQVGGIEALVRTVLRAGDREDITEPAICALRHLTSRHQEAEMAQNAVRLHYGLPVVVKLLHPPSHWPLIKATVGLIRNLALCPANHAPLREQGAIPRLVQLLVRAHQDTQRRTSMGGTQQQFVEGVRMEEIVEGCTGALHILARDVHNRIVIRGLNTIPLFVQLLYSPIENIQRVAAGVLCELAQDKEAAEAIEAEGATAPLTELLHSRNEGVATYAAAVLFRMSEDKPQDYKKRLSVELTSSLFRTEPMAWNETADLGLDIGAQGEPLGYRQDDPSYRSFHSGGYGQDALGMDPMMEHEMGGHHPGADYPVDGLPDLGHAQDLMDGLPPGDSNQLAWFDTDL

B1: PSPC1 (protein, UniProt Q8WXF1 1-523)
chain: MMLRGNLKQVRIEKNPARLRALESAVGESEPAAAAAMALALAGEPAPPAPAPPEDHPDEEMGFTIDIKSFLKPGEKTYTQRCRLFVGNLPTDITEEDFKRLFERYGEPSEVFINRDRGFGFIRLESRTLAEIAKAELDGTILKSRPLRIRFATHGAALTVKNLSPVVSNELLEQAFSQFGPVEKAVVVVDDRGRATGKGFVEFAAKPPARKALERCGDGAFLLTTTPRPVIVEPMEQFDDEDGLPEKLMQKTQQYHKEREQPPRFAQPGTFEFEYASRWKALDEMEKQQREQVDRNIREAKEKLEAEMEAARHEHQLMLMRQDLMRRQEELRRLEELRNQELQKRKQIQLRHEEEHRRREEEMIRHREQEELRRQQEGFKPNYMENREQEMRMGDMGPRGAINMGDAFSPAPAGNQGPPPMMGMNMNNRATIPGPPMGPGPAMGPEGAANMGTPMMPDNGAVHNDRFPQGPPSQMGSPMGSRTGSETPQAPMSGVGPVSGGPGGFGRGSQGGNFEGPNKRRRY
B2: SAP30 (protein, UniProt O75446 1-220)
chain: MNGFTPDEMSRGGDAAAAVAAVVAAAAAAASAGNGTGAGTGAEVPGAGAVSAAGPPGAAGPGPGQLCCLREDGERCGRAAGNASFSKRIQKSISQKKVKIELDKSARHLYICDYHKNLIQSVRNRRKRKGSDDDGGDSPVQDIDTPEVDLYQLQVNTLRRYKRHFKLPTRPGLNKAQLVEIVGCHFRSIPVNEKDTLTYFIYSVKNDKNKSDLKVDSGVH

Target: catalytic domain of TET2 (Tet2CD) (UniProt Q6N021)
Assay: affinity purification with mass spectrometry; IP of Tet2CD (antibody normally anti-Flag, overnight 4 °C, Protein A/G magnetic beads) from whole-cell lysates of SW480 and SW620 cells; trypsin digestion on beads; label-free quantification

Row | binding | Molecule
1 | binds | HDAC1 (from UniProt Q13547 1-482)
2 | binds | β-catenin (encoded by the CTNNB1 gene) (from UniProt P35222 1-781)
3 | binds | B1
4 | binds | B2
